Measured values taken from article PMC6054272, “Arabidopsis SKP1-like protein13 (ASK13) positively regulates seed germination and seedling growth under abiotic stress” (Journal of Experimental Botany, 2018).

Legend:
[1] = target: T1, ASK7 (Arabidopsis SKP1-like 7), yeast two-hybrid fusion (Arabidopsis thaliana) (UniProt Q9LSY0); assay: two-hybrid; one-to-one: pDEST-GBKT7 and pDEST-GADT7 constructs co-transformed into Y2H Gold; SD-Ade-His-Leu-Trp/X-alpha-Gal/aureobasidin agar
T1 sequence: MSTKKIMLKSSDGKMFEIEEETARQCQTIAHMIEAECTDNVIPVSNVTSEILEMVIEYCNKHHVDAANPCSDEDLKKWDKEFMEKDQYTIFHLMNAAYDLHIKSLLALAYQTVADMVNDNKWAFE

[2] = target: T2, Arabidopsis SKP1-like protein13 (ASK13), yeast two-hybrid fusion (Arabidopsis thaliana) (UniProt Q9M1X5); assay: two-hybrid; library screen: pGBKT7BD-ASK13 (bait) in Y2H Gold mated with a normalized Arabidopsis Y2H cDNA library (prey); SD lacking histidine, tryptophan, leucine and adenine with X-alpha-Gal and aureobasidin A; retrieved plasmids retested with the empty bait vector and with ASK13
T2 sequence: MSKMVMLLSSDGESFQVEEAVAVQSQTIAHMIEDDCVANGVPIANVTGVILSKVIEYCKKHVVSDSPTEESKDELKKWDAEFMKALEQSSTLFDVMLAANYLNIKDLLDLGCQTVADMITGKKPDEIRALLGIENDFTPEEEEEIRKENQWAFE

[3] = target: ASK6 (Arabidopsis SKP1-like 6), yeast two-hybrid fusion (Arabidopsis thaliana); assay: two-hybrid; one-to-one: pDEST-GBKT7 and pDEST-GADT7 constructs co-transformed into Y2H Gold; SD-Ade-His-Leu-Trp/X-alpha-Gal/aureobasidin agar

binding [1]: binds
Molecule: ASK6 (Arabidopsis SKP1-like 6), yeast two-hybrid fusion

binding [2]: binds
Molecule: Hsp70-binding protein1 At3g09350 (library prey) (Arabidopsis thaliana)

binding [3]: binds
B1: ASK7 (Arabidopsis SKP1-like 7), yeast two-hybrid fusion (protein, UniProt Q9LSY0 1-125)
chain: T1 sequence

No constants are given. Whether binding was seen depends on the method and setting. Binding can be weak; no strength is given. Sequences can lack the tags named with a protein. Each block holds one molecule with its values, some of them ahead of it.
